Source: paper PMC6562800
These are yes or no findings as the source states them, for the method shown. In cells and extracts the contact can be indirect. Some entries that bind do so weakly or less than the wild type.

Amino acid sequences for entries named in this document (tags omitted). Residues count along the entry.
UniProt Q99IB8, residues 384-750: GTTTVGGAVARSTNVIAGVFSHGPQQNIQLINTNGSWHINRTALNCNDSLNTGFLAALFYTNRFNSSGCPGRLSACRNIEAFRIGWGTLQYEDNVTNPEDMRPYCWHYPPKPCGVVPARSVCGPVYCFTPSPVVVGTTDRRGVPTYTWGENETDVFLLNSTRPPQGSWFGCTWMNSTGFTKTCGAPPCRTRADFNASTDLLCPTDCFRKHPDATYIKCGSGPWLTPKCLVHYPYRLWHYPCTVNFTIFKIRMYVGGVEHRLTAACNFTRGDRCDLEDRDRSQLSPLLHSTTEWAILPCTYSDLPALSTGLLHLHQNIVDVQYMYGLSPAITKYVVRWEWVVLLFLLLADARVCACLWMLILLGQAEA
UniProt P02649, residues 19-317: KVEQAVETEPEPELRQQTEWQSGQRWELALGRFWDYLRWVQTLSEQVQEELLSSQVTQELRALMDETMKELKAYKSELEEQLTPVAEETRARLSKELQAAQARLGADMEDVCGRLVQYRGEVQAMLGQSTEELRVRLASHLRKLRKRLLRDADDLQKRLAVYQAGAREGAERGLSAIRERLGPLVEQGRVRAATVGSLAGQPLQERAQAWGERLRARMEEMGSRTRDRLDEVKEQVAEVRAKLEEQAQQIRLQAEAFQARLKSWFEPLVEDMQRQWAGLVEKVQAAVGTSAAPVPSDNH

Biological target: HCV envelope glycoprotein E2 (species recognised by AR3A) (Hepatitis C virus (JFH1)) (UniProt Q99IB8)
Test: co-IP; A4HAHCVcc-infected Huh7.5 cells lysed with Tx buffer (1% Triton X-100, 2 mM EDTA, PBS; DRMs preserved); antibodies (AR3A, AR4A, AR5A, A4, anti-HA) on protein G-Sepharose; washed in PBS-0.1% Triton X-100; western blot

Apolipoprotein E (ApoE) (from UniProt P02649 19-317)
binding: binds
